In the supplement of paper PMC6078165:
± gives the standard deviation of the averaged measurements. Values are relative to the signal before dosing, not to a vehicle control; the signal also falls without drug.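 Fibroblast labels denote human fibroblasts, mainly primary ones from uterus (C12385, HUF), lung (H6013), bone (Hs27A), adrenal (HADF) and skin (WS1), plus mammary HMF and breast cancer-associated Hs343T. Cancer cells are basal-like or mesenchymal-like triple-negative breast cancer lines. A hit is a response shift exceeding 3x replicate standard deviation. The tissue of the other fibroblasts is not given here.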

Tested on: MDAMB436
Test: relative JC-1 red fluorescence (viability) vs pre-drug, coculture with fibroblast (fraction); higher = more viable cancer cells
Method: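 JC-1 labelled TNBC cells cocultured 1:1 (1,500 cells each) with CellTrace Violet stained primary or stromal fibroblasts in 384-well plates in FluoroBrite medium, treated with one of 42 anticancer drugs at 0.1, 1, 10 or 100 uM. JC-1 red fluorescence (mitochondrial integrity in cancer cells only) was read by plate reader every 8 h for 72 h. Values are normalised to each well's pre-drug value. The stock of one drug was tenfold lower, so its dose labels may be too high.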

O=NN(CCCl)C(=O)NC1CCCCC1 [Lomustine]
relative JC-1 red fluorescence
Settings | 8 h | 16 h | 24 h | 32 h | 40 h | 48 h | 56 h | 64 h | 72 h
10 µM, coculture fibroblast: C12385 | 0.762 ± 0.037 | 0.733 ± 0.017 | 0.709 ± 0.02 | 0.636 ± 0.021 | 0.599 ± 0.018 | 0.58 ± 0.022 | 0.561 ± 0.026 | 0.546 ± 0.024 | 0.542 ± 0.029
10 µM, coculture fibroblast: H6013 | 0.81 ± 0.017 | 0.7884 ± 0.0041 | 0.772 ± 0.014 | 0.785 ± 0.034 | 0.788 ± 0.054 | 0.817 ± 0.08 | 0.791 ± 0.098 | 0.782 ± 0.11 | 0.739 ± 0.12
10 µM, coculture fibroblast: H6019 | 0.75523 ± 0.00064 | 0.7093 ± 0.0056 | 0.676 ± 0.016 | 0.598 ± 0.025 | 0.559 ± 0.032 | 0.541 ± 0.036 | 0.508 ± 0.038 | 0.478 ± 0.039 | 0.451 ± 0.042
10 µM, coculture fibroblast: H6076 | 0.706 ± 0.052 | 0.649 ± 0.059 | 0.647 ± 0.055 | 0.62 ± 0.066 | 0.626 ± 0.064 | 0.623 ± 0.064 | 0.649 ± 0.072 | 0.643 ± 0.079 | 0.641 ± 0.083
10 µM, coculture fibroblast: H6231 | 0.7193 ± 0.0016 | 0.611 ± 0.068 | 0.622 ± 0.077 | 0.536 ± 0.078 | 0.521 ± 0.075 | 0.499 ± 0.073 | 0.494 ± 0.077 | 0.482 ± 0.077 | 0.478 ± 0.079
10 µM, coculture fibroblast: HADF | 0.7506 ± 0.0052 | 0.7168 ± 0.003 | 0.686 ± 0.0048 | 0.661 ± 0.005 | 0.653 ± 0.011 | 0.681 ± 0.017 | 0.625 ± 0.015 | 0.626 ± 0.019 | 0.589 ± 0.025
10 µM, coculture fibroblast: HCFa | 0.811 ± 0.034 | 0.797 ± 0.057 | 0.782 ± 0.066 | 0.754 ± 0.058 | 0.752 ± 0.061 | 0.782 ± 0.05 | 0.73 ± 0.043 | 0.739 ± 0.037 | 0.696 ± 0.033
10 µM, coculture fibroblast: HCPF | 0.684 ± 0.094 | 0.647 ± 0.092 | 0.663 ± 0.094 | 0.594 ± 0.099 | 0.594 ± 0.1 | 0.567 ± 0.11 | 0.561 ± 0.11 | 0.549 ± 0.12 | 0.551 ± 0.13
10 µM, coculture fibroblast: HHSteC | 0.779 ± 0.024 | 0.731 ± 0.0024 | 0.70207 ± 0.00039 | 0.6718 ± 0.002 | 0.6645 ± 0.0025 | 0.667 ± 0.0077 | 0.623 ± 0.011 | 0.6026 ± 0.004 | 0.5664 ± 0.0049
10 µM, coculture fibroblast: HMF | 0.739 ± 0.11 | 0.691 ± 0.1 | 0.677 ± 0.09 | 0.628 ± 0.092 | 0.629 ± 0.085 | 0.6 ± 0.086 | 0.619 ± 0.093 | 0.597 ± 0.084 | 0.607 ± 0.1
10 µM, coculture fibroblast: HPFa | 0.8422 ± 0.0053 | 0.805 ± 0.015 | 0.781 ± 0.024 | 0.736 ± 0.025 | 0.73 ± 0.032 | 0.738 ± 0.029 | 0.665 ± 0.04 | 0.646 ± 0.041 | 0.57 ± 0.033
10 µM, coculture fibroblast: HUF | 0.8022 ± 0.0053 | 0.73369 ± 0.00049 | 0.707 ± 0.013 | 0.632 ± 0.011 | 0.583 ± 0.016 | 0.558 ± 0.013 | 0.54 ± 0.012 | 0.5282 ± 0.0034 | 0.529 ± 0.0084
10 µM, coculture fibroblast: Hs5 | 0.688 ± 0.082 | 0.648 ± 0.053 | 0.64 ± 0.023 | 0.594 ± 0.017 | 0.59 ± 0.017 | 0.5636 ± 0.0011 | 0.57171 ± 0.00054 | 0.547 ± 0.0073 | 0.542 ± 0.011
10 µM, coculture fibroblast: Hs27A | 0.792 ± 0.02 | 0.764 ± 0.019 | 0.745 ± 0.03 | 0.723 ± 0.036 | 0.708 ± 0.045 | 0.791 ± 0.063 | 0.689 ± 0.057 | 0.675 ± 0.059 | 0.597 ± 0.064
10 µM, coculture fibroblast: Hs343T | 0.689 ± 0.034 | 0.626 ± 0.03 | 0.589 ± 0.038 | 0.538 ± 0.05 | 0.532 ± 0.054 | 0.509 ± 0.053 | 0.516 ± 0.066 | 0.513 ± 0.064 | 0.524 ± 0.073
10 µM, coculture fibroblast: WS1 | 0.759 ± 0.018 | 0.714 ± 0.0061 | 0.685 ± 0.017 | 0.601 ± 0.017 | 0.572 ± 0.022 | 0.545 ± 0.025 | 0.521 ± 0.028 | 0.489 ± 0.032 | 0.48 ± 0.027
100 µM, coculture fibroblast: C12385 | 0.749 ± 0.051 | 0.724 ± 0.02 | 0.7223 ± 0.0012 | 0.639 ± 0.018 | 0.601 ± 0.019 | 0.576 ± 0.026 | 0.558 ± 0.032 | 0.54 ± 0.035 | 0.531 ± 0.031
100 µM, coculture fibroblast: H6013 | 0.841 ± 0.055 | 0.851 ± 0.069 | 0.868 ± 0.096 | 0.883 ± 0.11 | 0.907 ± 0.13 | 0.782 ± 0.099 | 0.792 ± 0.051 | 0.8196 ± 0.0017 | 0.809 ± 0.04
100 µM, coculture fibroblast: H6019 | 0.7988 ± 0.0069 | 0.7692 ± 0.0065 | 0.756 ± 0.015 | 0.691 ± 0.021 | 0.663 ± 0.018 | 0.654 ± 0.018 | 0.627 ± 0.026 | 0.608 ± 0.021 | 0.591 ± 0.023
100 µM, coculture fibroblast: H6076 | 0.73137 ± 0.00051 | 0.678 ± 0.027 | 0.678 ± 0.053 | 0.633 ± 0.064 | 0.625 ± 0.071 | 0.608 ± 0.082 | 0.637 ± 0.1 | 0.637 ± 0.12 | 0.644 ± 0.14
100 µM, coculture fibroblast: H6231 | 0.825 ± 0.02 | 0.734 ± 0.13 | 0.778 ± 0.18 | 0.691 ± 0.2 | 0.665 ± 0.23 | 0.622 ± 0.24 | 0.627 ± 0.25 | 0.59 ± 0.26 | 0.587 ± 0.27
100 µM, coculture fibroblast: HADF | 0.799 ± 0.011 | 0.784 ± 0.019 | 0.758 ± 0.023 | 0.741 ± 0.024 | 0.742 ± 0.022 | 0.784 ± 0.027 | 0.73 ± 0.034 | 0.733 ± 0.038 | 0.689 ± 0.039
100 µM, coculture fibroblast: HCFa | 0.794 ± 0.028 | 0.784 ± 0.028 | 0.778 ± 0.053 | 0.763 ± 0.063 | 0.764 ± 0.072 | 0.795 ± 0.092 | 0.739 ± 0.098 | 0.749 ± 0.12 | 0.715 ± 0.11
100 µM, coculture fibroblast: HCPF | 0.774 ± 0.01 | 0.771 ± 0.0086 | 0.807 ± 0.028 | 0.76 ± 0.031 | 0.747 ± 0.037 | 0.72 ± 0.048 | 0.71 ± 0.047 | 0.702 ± 0.043 | 0.69 ± 0.038
100 µM, coculture fibroblast: HHSteC | 0.81 ± 0.021 | 0.831 ± 0.036 | 0.824 ± 0.06 | 0.798 ± 0.074 | 0.815 ± 0.088 | 0.835 ± 0.086 | 0.778 ± 0.098 | 0.769 ± 0.1 | 0.724 ± 0.096
100 µM, coculture fibroblast: HMF | 0.784 ± 0.047 | 0.743 ± 0.058 | 0.723 ± 0.067 | 0.665 ± 0.079 | 0.64 ± 0.09 | 0.603 ± 0.09 | 0.608 ± 0.099 | 0.594 ± 0.1 | 0.6 ± 0.11
100 µM, coculture fibroblast: HPFa | 0.854 ± 0.018 | 0.813 ± 0.035 | 0.791 ± 0.043 | 0.748 ± 0.063 | 0.748 ± 0.075 | 0.759 ± 0.095 | 0.693 ± 0.096 | 0.679 ± 0.11 | 0.618 ± 0.11
100 µM, coculture fibroblast: HUF | 0.861 ± 0.0067 | 0.783 ± 0.01 | 0.77 ± 0.012 | 0.687 ± 0.017 | 0.645 ± 0.019 | 0.614 ± 0.025 | 0.595 ± 0.031 | 0.583 ± 0.032 | 0.582 ± 0.043
100 µM, coculture fibroblast: Hs5 | 0.789 ± 0.014 | 0.734 ± 0.018 | 0.708 ± 0.032 | 0.644 ± 0.032 | 0.635 ± 0.049 | 0.584 ± 0.052 | 0.593 ± 0.073 | 0.578 ± 0.068 | 0.575 ± 0.079
100 µM, coculture fibroblast: Hs27A | 0.809 ± 0.04 | 0.778 ± 0.045 | 0.761 ± 0.057 | 0.733 ± 0.076 | 0.718 ± 0.093 | 0.79 ± 0.12 | 0.698 ± 0.11 | 0.702 ± 0.12 | 0.64 ± 0.12
100 µM, coculture fibroblast: Hs343T | 0.845 ± 0.045 | 0.78 ± 0.061 | 0.734 ± 0.079 | 0.672 ± 0.091 | 0.648 ± 0.097 | 0.601 ± 0.099 | 0.599 ± 0.11 | 0.587 ± 0.14 | 0.594 ± 0.14
100 µM, coculture fibroblast: WS1 | 0.77 ± 0.016 | 0.7403 ± 0.0028 | 0.742 ± 0.01 | 0.672 ± 0.0099 | 0.645 ± 0.02 | 0.622 ± 0.017 | 0.602 ± 0.019 | 0.574 ± 0.017 | 0.567 ± 0.024
